Test results reported in paper PMC12040169 (PLOS Biology, 2025).
Some of the results follow.

The compounds below were run on T1, CTL2-GFP (C. trachomatis L2/434/Bu, GFP-expressing). Conditions: bulk GFP, single well; 28.5 h, 10 µM; inhibitor.
T1 construct: L2/434/Bu, GFP-expressing
Parameters: species or system HeLa; Intracellular C. trachomatis growth in HeLa cells, bulk GFP fluorescence relative to DMSO
For `CNc1ccc(C(O)(C(F)(F)F)C(F)(F)F)cc1C(O)(C(F)(F)F)C(F)(F)F` [CBK268070], the “% of control remaining” value was 125.225%. With `O=[N+]([O-])c1ccc(N2CCN(S(=O)(=O)c3ccccc3)CC2)cc1Sc1cccc2cccnc12` [CBK263821] the “% of control remaining” value was 104.667%. `c1nc(OCCN2CCOCC2)cc(N2CCCNCC2)n1` [CBK085466] was tested, and the “% of control remaining” value was 132.309%. In the case of `O=C(O)CCc1nc(-c2ccncc2)no1` [CBK288558], the “% of control remaining” value is reported as 128.508%. `COc1ccc(C(=O)NC(=S)Nc2ccccc2N2CCN(C)CC2)cc1[N+](=O)[O-]` [CBK268292C] was tested, and the “% of control remaining” value was 105.423%. In the case of `Cc1cc(S(=O)(=O)Nc2n[nH]cc2C#N)c(C)cc1Cl` [CBK044943], the “% of control remaining” value is reported as 96.7824%. In the case of `OCCCNc1nccnc1-c1ccccc1Cl` [CBK038092], the “% of control remaining” value is reported as 217.457%. In the case of `CC(=O)c1c(C)nn(CCC(=O)Nc2ccc(Cl)c(Cl)c2)c1C` [CBK269829], the “% of control remaining” value is reported as 104.961%. `CC(C)N(CCOc1nccnc1-c1ccc(OC(F)(F)F)cc1)C(C)C` [CBK106848] was tested, and the “% of control remaining” value was 120.201%. `Cc1c(-c2noc(-c3ccc4c(c3)OCO4)n2)nnn1Cc1ccccc1` [CBK288609] was tested, and the “% of control remaining” value was 74.5332%. `CC(Oc1ccc(/C=C/[N+](=O)[O-])cc1)C(=O)O` (stereo not shown) [CBK264042] was tested, and the “% of control remaining” value was 125.91%. With `CC(=O)OC(C(=O)O)C(OC(C)=O)C(=O)O` (stereo not shown) [CBK261063] the “% of control remaining” value was 94.3018%. `NC12CC(=O)CC(CC(c3ccccc3)C1)C2` (stereo not shown) [CBK010323C] was tested, and the “% of control remaining” value was 138.546%. In the case of `COC(=O)c1ccccc1NC(=O)CSc1nnc(-c2ccncc2)[nH]1` [CBK266324], the “% of control remaining” value is reported as 108.191%. For `OCCN1CC2(CCN(CCN3CCOCC3)CC2)c2ccccc21` [CBK126766], the “% of control remaining” value was 70.6967%. In the case of `Cc1nn(C)c(C)c1C(C)NC(=O)C1CC2C=CC1C21CC1` (stereo not shown) [CBK283076], the “% of control remaining” value is reported as 142.154%. For `Cc1cc(COc2nccnc2N2CCN(CCCn3c(=O)[nH]c4ccccc43)CC2)no1` [CBK084199], the “% of control remaining” value was 151.35%. In the case of `O=C(O)c1[nH]n(-c2ccc(Cl)cc2)c(=O)c1CCO` [CBK287079], the “% of control remaining” value is reported as 126.885%. In the case of `Cc1nc2cccnc2n1C1CCN(C(=O)NC2CCCCC2)CC1` [CBK283637], the “% of control remaining” value is reported as 106.573%. In the case of `Cc1noc(C)c1S(=O)(=O)Nc1cccc(C(=O)O)c1` [CBK038902], the “% of control remaining” value is reported as 187.498%. In the case of `Cc1c(CN(C)C(=O)c2ccc(COc3ccc(Cl)cc3)cc2)cnn1C` [CBK265756], the “% of control remaining” value is reported as 53.9885%. `CCn1nc(C(=O)Nc2ccccc2-c2ccc(OC)cc2)c2ccccc2c1=O` [CBK285864] was tested, and the “% of control remaining” value was 136.275%.
